Experimental data as given in US20130078720A1, “METHOD FOR INDUCING PLURIPOTENCY IN HUMAN SOMATIC CELLS WITH PRDM14 OR NFRKB” (Agency for Science, Technology and Research, published 2013).
No constants are given. Whether binding was seen depends on the method and setting. Binding seen in cells or lysates may run through a third protein. Some binding calls cover weakened binding; strength is not graded here. For some of these results: Where a sequence is shown, tags or fusion partners need not be part of it.

Sequences of proteins named here, by UniProt entry; tags and fusion partners are left off.
UniProt Q15910: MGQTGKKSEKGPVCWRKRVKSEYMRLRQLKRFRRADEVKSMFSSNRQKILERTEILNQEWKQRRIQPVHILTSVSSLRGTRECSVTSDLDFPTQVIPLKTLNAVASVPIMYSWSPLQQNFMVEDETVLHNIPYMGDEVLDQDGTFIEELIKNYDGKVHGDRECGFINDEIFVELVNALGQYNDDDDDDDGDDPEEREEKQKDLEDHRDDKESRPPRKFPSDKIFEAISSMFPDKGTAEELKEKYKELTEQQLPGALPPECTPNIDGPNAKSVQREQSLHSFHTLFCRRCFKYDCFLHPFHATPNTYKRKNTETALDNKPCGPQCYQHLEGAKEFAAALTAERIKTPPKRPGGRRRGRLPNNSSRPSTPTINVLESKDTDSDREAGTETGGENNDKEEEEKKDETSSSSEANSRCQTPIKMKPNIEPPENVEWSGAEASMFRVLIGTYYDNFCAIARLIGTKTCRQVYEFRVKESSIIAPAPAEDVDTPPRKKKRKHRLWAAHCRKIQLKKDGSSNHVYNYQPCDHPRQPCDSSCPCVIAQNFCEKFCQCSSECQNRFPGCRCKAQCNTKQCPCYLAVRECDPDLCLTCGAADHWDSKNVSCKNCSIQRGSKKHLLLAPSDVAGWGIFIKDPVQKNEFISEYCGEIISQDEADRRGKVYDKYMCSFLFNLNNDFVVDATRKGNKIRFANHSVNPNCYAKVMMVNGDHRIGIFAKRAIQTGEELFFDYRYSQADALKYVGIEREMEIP

What was measured:
[1] = biological target: Ezh2, a component of polycomb repressive complex 2 (human) (UniProt Q15910); test: co-IP, hESC whole cell lysate (FIG. 21B)
[2] = biological target: Ezh2, a component of polycomb repressive complex 2 (human) (UniProt Q15910); test: co-IP from hESC whole cell lysate with anti-PRDM14 and anti-Ezh2 antibody, western with anti-PRDM14 or anti-Ezh2 antibody (FIG. 21B)
Myc tagged EZH2 protein [3] = biological target: Myc tagged EZH2 protein (UniProt Q15910); test: co-IP, co-transfected 293T cells (FIG. 21C)
Myc tagged EZH2 protein [4] = biological target: Myc tagged EZH2 protein (UniProt Q15910); test: co-IP from lysate of 293T cells co-transfected with HA tagged PRDM14 and Myc tagged EZH2, with anti-HA and anti-Myc antibody (FIG. 21C)

Binder	binding [1]	binding [2]	binding (Myc tagged EZH2 protein [3])	binding (Myc tagged EZH2 protein [4])
PR domain-containing protein 14 (PRDM14) (protein) MALPRPSEAVPQDKVCYPPESSPQNLAAYYTPFPSYGHYRNSLATVEEDFQPFRQLEAAASAAPAMPPFPFRMAPPLLSPGLGLQREPLYDLPWYSKLPPWYPIPHVPREVPPFLSSSHEYAGASSEDLGHQIIGGDNESGPCCGPDTLIPPPPADASLLPEGLRTSQLLPCSPSKQSEDGPKPSNQEGKSPARFQFTEEDLHFVLYGVTPSLEHPASLHHAISGLLVPPDSSGSDSLPQTLDKDSLQLPEGLCLMQTVFGEVPHFGVFCSSFIAKGVRFGPFQGKVVNASEVKTYGDNSVMWEIFEDGHLSHFIDGKGGTGNWMSYVNCARFPKEQNLVAVQCQGHIFYESCKEIHQNQELLVWYGDCYEKFLDIPVSLQVTEPGKQPSGPSEESAEGYRCERCGKVFTYKYYRDKHLKYTPCVDKGDRKFPCSLCKRSFEKRDRLRIHILHVHEKHRPHKCSTCGKCFSQSSSLNKHMRVHSGDRPYQCVYCTKRFTASSILRTHIRQHSGEKPFKCKYCGKSFASHAAHDSHVRRSHKEDDGCSCSICGKIFSDQETFYSHMKFHEDY	binds	binds	–	–
HA tagged PRDM14 (protein, not shown: small tags and cut ends) MALPRPSEAVPQDKVCYPPESSPQNLAAYYTPFPSYGHYRNSLATVEEDFQPFRQLEAAASAAPAMPPFPFRMAPPLLSPGLGLQREPLYDLPWYSKLPPWYPIPHVPREVPPFLSSSHEYAGASSEDLGHQIIGGDNESGPCCGPDTLIPPPPADASLLPEGLRTSQLLPCSPSKQSEDGPKPSNQEGKSPARFQFTEEDLHFVLYGVTPSLEHPASLHHAISGLLVPPDSSGSDSLPQTLDKDSLQLPEGLCLMQTVFGEVPHFGVFCSSFIAKGVRFGPFQGKVVNASEVKTYGDNSVMWEIFEDGHLSHFIDGKGGTGNWMSYVNCARFPKEQNLVAVQCQGHIFYESCKEIHQNQELLVWYGDCYEKFLDIPVSLQVTEPGKQPSGPSEESAEGYRCERCGKVFTYKYYRDKHLKYTPCVDKGDRKFPCSLCKRSFEKRDRLRIHILHVHEKHRPHKCSTCGKCFSQSSSLNKHMRVHSGDRPYQCVYCTKRFTASSILRTHIRQHSGEKPFKCKYCGKSFASHAAHDSHVRRSHKEDDGCSCSICGKIFSDQETFYSHMKFHEDY	–	–	binds	binds
